Data set [1] has as its system HEK293T cells. The data set is described as follows: Surface localization of HA-tagged engineered receptors by flow cytometry with anti-HA antibody. The data set is classed as cell-based. Particulars: normalized to SEQ ID NO: 33 control; for Normalized HA %: % HA-tag positive cells; for Normalized HA MFI: anti-HA MFI.
Data set [2] has as its system HEK293T cells. It counts as cell-based.

B1: CODA339: engineered chimeric LGIC receptor, L131D in SEQ ID NO: 33 (protein)
chain: MRCSPGGVWLALAASLLHVSLQGEFQRKLYKELVKNYNPLERPVANDSQPLTVYFSLSLLQIMDVDEKNQVLTTNIWLQMSWTDHYLQWNVSEYPGVKTVRFPDGQIWKPDILLYNSADERFDATFHTNVDVNSSGHCQYLPPGIFKSSCPMDLKNFPMDVQTCKLKFGSWSYGGWSLDLQMQEADISGYIPNGEWDLVGIPGKRSERFYECCKEPYPDVTFTVTMRRRMGYYLIQMYIPSLLIVILSWISFWINMDAAPARVGLGITTVLTMTTQSSGSRASLPKVSYVKAIDIWMAVCLLFVFSALLEYAAVNFVSRQHKELLRFRRKRRHHKSPMLNLFQEDEAGEGRFNFSAYGMGPACLQAKDGISVKGANNSNTTNPPPAPSKSPEEMRKLFIQRAKKIDKISRIGFPMAFLIFNMFYWIIYKIVRREDVHNQ
modifications: synthetic sequence of chimeric LGIC
On to B1, for which, in data set [1], the “Normalized HA %” value was found to be 1.59 and the “Normalized HA MFI” value is reported as 0.79. In data set [2], the “Normalized AB %” value was found to be 0.84 and the “Normalized AB MFI” value is given as 1.41.

B2: CODA536: engineered chimeric LGIC receptor, L131D, S172D in SEQ ID NO: 33 (protein)
chain: MRCSPGGVWLALAASLLHVSLQGEFQRKLYKELVKNYNPLERPVANDSQPLTVYFSLSLLQIMDVDEKNQVLTTNIWLQMSWTDHYLQWNVSEYPGVKTVRFPDGQIWKPDILLYNSADERFDATFHTNVDVNSSGHCQYLPPGIFKSSCPMDLKNFPMDVQTCKLKFGSWDYGGWSLDLQMQEADISGYIPNGEWDLVGIPGKRSERFYECCKEPYPDVTFTVTMRRRMGYYLIQMYIPSLLIVILSWISFWINMDAAPARVGLGITTVLTMTTQSSGSRASLPKVSYVKAIDIWMAVCLLFVFSALLEYAAVNFVSRQHKELLRFRRKRRHHKSPMLNLFQEDEAGEGRFNFSAYGMGPACLQAKDGISVKGANNSNTTNPPPAPSKSPEEMRKLFIQRAKKIDKISRIGFPMAFLIFNMFYWIIYKIVRREDVHNQ
modifications: synthetic sequence of chimeric LGIC
In the case of B2, in data set [1], the “Normalized HA %” value amounted to 0.40 and the “Normalized HA MFI” value was 0.87. Moreover, in data set [2], the “Normalized AB %” value amounted to 0.48 and the “Normalized AB MFI” value was 0.87.

B3: CODA409: engineered chimeric LGIC receptor, Y210W in SEQ ID NO: 33 (protein)
chain: MRCSPGGVWLALAASLLHVSLQGEFQRKLYKELVKNYNPLERPVANDSQPLTVYFSLSLLQIMDVDEKNQVLTTNIWLQMSWTDHYLQWNVSEYPGVKTVRFPDGQIWKPDILLYNSADERFDATFHTNVLVNSSGHCQYLPPGIFKSSCPMDLKNFPMDVQTCKLKFGSWSYGGWSLDLQMQEADISGYIPNGEWDLVGIPGKRSERFWECCKEPYPDVTFTVTMRRRMGYYLIQMYIPSLLIVILSWISFWINMDAAPARVGLGITTVLTMTTQSSGSRASLPKVSYVKAIDIWMAVCLLFVFSALLEYAAVNFVSRQHKELLRFRRKRRHHKSPMLNLFQEDEAGEGRFNFSAYGMGPACLQAKDGISVKGANNSNTTNPPPAPSKSPEEMRKLFIQRAKKIDKISRIGFPMAFLIFNMFYWIIYKIVRREDVHNQ
modifications: synthetic sequence of chimeric LGIC
For the molecule B3, in data set [1], the “Normalized HA %” value came to 0.96 and the “Normalized HA MFI” value came to 1.09. In data set [2], the “Normalized AB %” value is listed as 0.88 and the “Normalized AB MFI” value is listed as 0.62.

B4: CODA805: engineered chimeric LGIC receptor, Y115D, S170T in SEQ ID NO: 33 (protein)
chain: MRCSPGGVWLALAASLLHVSLQGEFQRKLYKELVKNYNPLERPVANDSQPLTVYFSLSLLQIMDVDEKNQVLTTNIWLQMSWTDHYLQWNVSEYPGVKTVRFPDGQIWKPDILLDNSADERFDATFHTNVLVNSSGHCQYLPPGIFKSSCPMDLKNFPMDVQTCKLKFGTWSYGGWSLDLQMQEADISGYIPNGEWDLVGIPGKRSERFYECCKEPYPDVTFTVTMRRRMGYYLIQMYIPSLLIVILSWISFWINMDAAPARVGLGITTVLTMTTQSSGSRASLPKVSYVKAIDIWMAVCLLFVFSALLEYAAVNFVSRQHKELLRFRRKRRHHKSPMLNLFQEDEAGEGRFNFSAYGMGPACLQAKDGISVKGANNSNTTNPPPAPSKSPEEMRKLFIQRAKKIDKISRIGFPMAFLIFNMFYWIIYKIVRREDVHNQ
modifications: synthetic sequence of chimeric LGIC
As for B4, in data set [1], the “Normalized HA %” value is reported as 0.70 and the “Normalized HA MFI” value turned out to be 0.94. In addition, in data set [2], the “Normalized AB %” value is 0.56 and the “Normalized AB MFI” value came out at 0.93.

B5: CODA535: engineered chimeric LGIC receptor, L131T, S172D in SEQ ID NO: 33 (protein)
chain: MRCSPGGVWLALAASLLHVSLQGEFQRKLYKELVKNYNPLERPVANDSQPLTVYFSLSLLQIMDVDEKNQVLTTNIWLQMSWTDHYLQWNVSEYPGVKTVRFPDGQIWKPDILLYNSADERFDATFHTNVTVNSSGHCQYLPPGIFKSSCPMDLKNFPMDVQTCKLKFGSWDYGGWSLDLQMQEADISGYIPNGEWDLVGIPGKRSERFYECCKEPYPDVTFTVTMRRRMGYYLIQMYIPSLLIVILSWISFWINMDAAPARVGLGITTVLTMTTQSSGSRASLPKVSYVKAIDIWMAVCLLFVFSALLEYAAVNFVSRQHKELLRFRRKRRHHKSPMLNLFQEDEAGEGRFNFSAYGMGPACLQAKDGISVKGANNSNTTNPPPAPSKSPEEMRKLFIQRAKKIDKISRIGFPMAFLIFNMFYWIIYKIVRREDVHNQ
modifications: synthetic sequence of chimeric LGIC
B5: in data set [1], the “Normalized HA %” value is 0.33 and the “Normalized HA MFI” value was 0.86. Moreover, in data set [2], the “Normalized AB %” value stood at 0.43 and the “Normalized AB MFI” value was found to be 0.72.

B6: CODA534: engineered chimeric LGIC receptor, L131S, S172D in SEQ ID NO: 33 (protein)
chain: MRCSPGGVWLALAASLLHVSLQGEFQRKLYKELVKNYNPLERPVANDSQPLTVYFSLSLLQIMDVDEKNQVLTTNIWLQMSWTDHYLQWNVSEYPGVKTVRFPDGQIWKPDILLYNSADERFDATFHTNVSVNSSGHCQYLPPGIFKSSCPMDLKNFPMDVQTCKLKFGSWDYGGWSLDLQMQEADISGYIPNGEWDLVGIPGKRSERFYECCKEPYPDVTFTVTMRRRMGYYLIQMYIPSLLIVILSWISFWINMDAAPARVGLGITTVLTMTTQSSGSRASLPKVSYVKAIDIWMAVCLLFVFSALLEYAAVNFVSRQHKELLRFRRKRRHHKSPMLNLFQEDEAGEGRFNFSAYGMGPACLQAKDGISVKGANNSNTTNPPPAPSKSPEEMRKLFIQRAKKIDKISRIGFPMAFLIFNMFYWIIYKIVRREDVHNQ
modifications: synthetic sequence of chimeric LGIC
For the molecule B6, in data set [1], the “Normalized HA %” value is on record as 0.47 and the “Normalized HA MFI” value worked out at 1.10. Further, in data set [2], the “Normalized AB %” value is 0.44 and the “Normalized AB MFI” value is reported as 0.91.

B7: CODA342: engineered chimeric LGIC receptor, L131R in SEQ ID NO: 33 (protein)
chain: MRCSPGGVWLALAASLLHVSLQGEFQRKLYKELVKNYNPLERPVANDSQPLTVYFSLSLLQIMDVDEKNQVLTTNIWLQMSWTDHYLQWNVSEYPGVKTVRFPDGQIWKPDILLYNSADERFDATFHTNVRVNSSGHCQYLPPGIFKSSCPMDLKNFPMDVQTCKLKFGSWSYGGWSLDLQMQEADISGYIPNGEWDLVGIPGKRSERFYECCKEPYPDVTFTVTMRRRMGYYLIQMYIPSLLIVILSWISFWINMDAAPARVGLGITTVLTMTTQSSGSRASLPKVSYVKAIDIWMAVCLLFVFSALLEYAAVNFVSRQHKELLRFRRKRRHHKSPMLNLFQEDEAGEGRFNFSAYGMGPACLQAKDGISVKGANNSNTTNPPPAPSKSPEEMRKLFIQRAKKIDKISRIGFPMAFLIFNMFYWIIYKIVRREDVHNQ
modifications: synthetic sequence of chimeric LGIC
Consider B7, for which, in data set [1], the “Normalized HA %” value is on record as 1.83 and the “Normalized HA MFI” value came out at 0.74. In data set [2], the “Normalized AB %” value stood at 0.61 and the “Normalized AB MFI” value was 1.24.

B8: CODA806: engineered chimeric LGIC receptor, Y115D, L131Q in SEQ ID NO: 33 (protein)
chain: MRCSPGGVWLALAASLLHVSLQGEFQRKLYKELVKNYNPLERPVANDSQPLTVYFSLSLLQIMDVDEKNQVLTTNIWLQMSWTDHYLQWNVSEYPGVKTVRFPDGQIWKPDILLDNSADERFDATFHTNVQVNSSGHCQYLPPGIFKSSCPMDLKNFPMDVQTCKLKFGSWSYGGWSLDLQMQEADISGYIPNGEWDLVGIPGKRSERFYECCKEPYPDVTFTVTMRRRMGYYLIQMYIPSLLIVILSWISFWINMDAAPARVGLGITTVLTMTTQSSGSRASLPKVSYVKAIDIWMAVCLLFVFSALLEYAAVNFVSRQHKELLRFRRKRRHHKSPMLNLFQEDEAGEGRFNFSAYGMGPACLQAKDGISVKGANNSNTTNPPPAPSKSPEEMRKLFIQRAKKIDKISRIGFPMAFLIFNMFYWIIYKIVRREDVHNQ
modifications: synthetic sequence of chimeric LGIC
Consider B8, for which, in data set [1], the “Normalized HA %” value was 0.36 and the “Normalized HA MFI” value stood at 0.83. Besides, in data set [2], the “Normalized AB %” value stood at 0.33 and the “Normalized AB MFI” value was 2.04.

B9: CODA377: engineered chimeric LGIC receptor, S172D in SEQ ID NO: 33 (protein)
chain: MRCSPGGVWLALAASLLHVSLQGEFQRKLYKELVKNYNPLERPVANDSQPLTVYFSLSLLQIMDVDEKNQVLTTNIWLQMSWTDHYLQWNVSEYPGVKTVRFPDGQIWKPDILLYNSADERFDATFHTNVLVNSSGHCQYLPPGIFKSSCPMDLKNFPMDVQTCKLKFGSWDYGGWSLDLQMQEADISGYIPNGEWDLVGIPGKRSERFYECCKEPYPDVTFTVTMRRRMGYYLIQMYIPSLLIVILSWISFWINMDAAPARVGLGITTVLTMTTQSSGSRASLPKVSYVKAIDIWMAVCLLFVFSALLEYAAVNFVSRQHKELLRFRRKRRHHKSPMLNLFQEDEAGEGRFNFSAYGMGPACLQAKDGISVKGANNSNTTNPPPAPSKSPEEMRKLFIQRAKKIDKISRIGFPMAFLIFNMFYWIIYKIVRREDVHNQ
modifications: synthetic sequence of chimeric LGIC
As to B9, in data set [1], the “Normalized HA %” value was 0.36 and the “Normalized HA MFI” value came out at 0.61. Further, in data set [2], the “Normalized AB %” value was 0.50 and the “Normalized AB MFI” value is 0.90.
